Patent US20250120981A1, “MRTX1133 PHARMACEUTICAL COMPOSITIONS” (MIRATI THERAPEUTICS, INC., priority 2023, published 2025)
Several values for one entry are separate records, joined by “and”; a condition that tells them apart may be missing. Identical values can stand only once. The source gives many values for each of these; only a part stands here.

Test: Pharmacokinetics in humans, MRTX1133 formulation, oral, single and multiple doses
Type: in vivo
Procedure: The pharmacokinetics [PK] of the MRTX1133 formulation after oral administration has been evaluated in 25 subjects across 3 escalating dose frequencies under fasting conditions (200 mg twice daily [BID], 400 mg BID, and 800 mg BID), as well as evaluation of 400 mg BID when administered with a low-fat meal (i.e., under fed conditions). The mean (+standard deviation) single-dose and multiple-dose pharmacokinetic profiles of the evaluated doses are presented in FIG. 9 and FIG. 10, respectively. Individual single- and multiple-dose PK profiles can be found in FIG. 11. For all figures, the X-axis represents nominal time of sample collection (hours [h]) and the Y-axis represents plasma concentration (ng/mL). Table 10 lists PK data following the oral administration of a single dose and multiple doses of MRTX1133 formulation by dose level and subject.

With `C#Cc1c(F)ccc2cc(O)cc(-c3ncc4c(N5C[C@H]6CC[C@@H](C5)N6)nc(OC[C@@]56CCCN5C[C@H](F)C6)nc4c3F)c12` [MRTX1133, 4-(4-((1R,5S)-3,8-diazabicyclo[3.2.1]octan-3-yl)-8-fluoro-2-(((2R,7aS)-2-fluorohexahydro-1Hpyrrolizin-7a-yl)methoxy)pyrido[4,3-d]pyrimidin-7-yl)-5-ethynyl-6-fluoronaphthalen-2-ol] the Plasma concentration (multiple oral doses of 200 mg BID, fasted, 0 h, individual subjects) was 1.63 ng/mL and 5.45 ng/mL and 0.632 ng/mL and 2.26 ng/mL and 16.7 ng/mL, the Plasma concentration (multiple oral doses of 200 mg BID, fasted, 0.5 h, individual subjects) was 57.5 ng/mL and 5.15 ng/mL and 49.4 ng/mL and 13.1 ng/mL and 15.3 ng/mL and the Plasma concentration (multiple oral doses of 200 mg BID, fasted, 1 h, individual subjects) was 85.0 ng/mL and 12.6 ng/mL and 8.00 ng/mL and 34.7 ng/mL and 15.2 ng/mL. For the same molecule, the Plasma concentration (multiple oral doses of 200 mg BID, fasted, 1.5 h, individual subjects) was 55.0 ng/mL and 15.0 ng/mL and 4.08 ng/mL and 56.2 ng/mL and 17.1 ng/mL, the Plasma concentration (multiple oral doses of 200 mg BID, fasted, 2 h, individual subjects) was 29.9 ng/mL and 7.52 ng/mL and 4.43 ng/mL and 35.7 ng/mL and 15.6 ng/mL and the Plasma concentration (multiple oral doses of 200 mg BID, fasted, 4 h, individual subjects) was 12.3 ng/mL and 5.95 ng/mL and 1.64 ng/mL and 5.01 ng/mL. The Plasma concentration (multiple oral doses of 200 mg BID, fasted, 6 h, individual subjects) was 5.03 ng/mL and 4.63 ng/mL and 1.14 ng/mL and 3.28 ng/mL, the Plasma concentration (multiple oral doses of 200 mg BID, fasted, 8 h, individual subjects) was 3.22 ng/mL and 4.13 ng/mL and 0.878 ng/mL and 2.44 ng/mL and the Plasma concentration (multiple oral doses of 200 mg BID, fasted, 12 h, individual subjects) was 2.72 ng/mL and 5.45 ng/mL and 0.928 ng/mL and 2.08 ng/mL. The Plasma concentration (multiple oral doses of 400 mg BID with a low-fat meal, 0 h, individual subjects) was 53.8 ng/mL and 2.95 ng/mL and 4.53 ng/mL and 5.39 ng/mL, the Plasma concentration (multiple oral doses of 400 mg BID with a low-fat meal, 1 h, individual subjects) was 390 ng/mL and 90.3 ng/mL and 48.2 ng/mL and 23.0 ng/mL and the Plasma concentration (multiple oral doses of 400 mg BID with a low-fat meal, 2 h, individual subjects) was 203 ng/mL and 27.3 ng/mL and 17.9 ng/mL and 18.5 ng/mL. The Plasma concentration (multiple oral doses of 400 mg BID with a low-fat meal, 3 h, individual subjects) was 170 ng/mL and 24.8 ng/mL and 9.11 ng/mL and 16.6 ng/mL, the Plasma concentration (multiple oral doses of 400 mg BID with a low-fat meal, 4 h, individual subjects) was 129 ng/mL and 250 ng/mL and 6.60 ng/mL and 14.7 ng/mL and the Plasma concentration (multiple oral doses of 400 mg BID with a low-fat meal, 5 h, individual subjects) was 106 ng/mL and 39.4 ng/mL and 5.09 ng/mL and 8.57 ng/mL. For the same molecule, the Plasma concentration (multiple oral doses of 400 mg BID with a low-fat meal, 6 h, individual subjects) was 89.4 ng/mL and 18.8 ng/mL and 4.07 ng/mL and 7.64 ng/mL, the Plasma concentration (multiple oral doses of 400 mg BID with a low-fat meal, 8 h, individual subjects) was 73.2 ng/mL and 8.47 ng/mL and 3.12 ng/mL and 7.05 ng/mL and the Plasma concentration (multiple oral doses of 400 mg BID with a low-fat meal, 12 h, individual subjects) was 55.3 ng/mL and 5.28 ng/mL and 2.90 ng/mL and 5.71 ng/mL. For the same molecule, the Plasma concentration (multiple oral doses of 400 mg BID, fasted, 0 h, individual subjects) was 57.3 ng/mL and 0.579 ng/mL and 33.1 ng/mL and 9.12 ng/mL and 4.7 ng/mL and 9.83 ng/mL and 21.3 ng/mL, the Plasma concentration (multiple oral doses of 800 mg BID, fasted, 0 h, individual subjects 1-8) was 2.55 ng/mL and 19.3 ng/mL and 2.01 ng/mL and 12 ng/mL and 10.6 ng/mL and 36.5 ng/mL and 78.1 ng/mL and 3.63 ng/mL and the Plasma concentration (multiple oral doses of 800 mg BID, fasted, 0.5 h, individual subjects 1-8) was 7.77 ng/mL and 241 ng/mL (2×) and 34.4 ng/mL and 131 ng/mL and 11.2 ng/mL and 38.8 ng/mL and 72.6 ng/mL. For the same molecule, the Plasma concentration (multiple oral doses of 800 mg BID, fasted, 1 h, individual subjects 1-8) was 9.9 ng/mL and 149 ng/mL and 25.9 ng/mL and 136 ng/mL and 12.9 ng/mL and 47.4 ng/mL and 670 ng/mL and 44.1 ng/mL, the Plasma concentration (multiple oral doses of 800 mg BID, fasted, 1.5 h, individual subjects 1-8) was 10.7 ng/mL and 80.9 ng/mL and 24.5 ng/mL and 143 ng/mL and 23.5 ng/mL and 45.1 ng/mL and 483 ng/mL and 44.3 ng/mL and the Plasma concentration (multiple oral doses of 800 mg BID, fasted, 2 h, individual subjects 1-8) was 8.1 ng/mL and 84.2 ng/mL and 30.8 ng/mL and 165 ng/mL and 29.8 ng/mL and 83.3 ng/mL and 531 ng/mL and 41 ng/mL. The Plasma concentration (multiple oral doses of 800 mg BID, fasted, 4 h, individual subjects 1-8) was 19.9 ng/mL and 26.3 ng/mL and 13.4 ng/mL and 67.4 ng/mL and 22.5 ng/mL and 105 ng/mL and 812 ng/mL and 35.9 ng/mL, the Plasma concentration (multiple oral doses of 800 mg BID, fasted, 6 h, individual subjects 1-8) was 38.2 ng/mL and 18.9 ng/mL and 4.94 ng/mL and 51.2 ng/mL and 26.1 ng/mL and 89.7 ng/mL and 609 ng/mL and 14.1 ng/mL and the Plasma concentration (multiple oral doses of 800 mg BID, fasted, 8 h, individual subjects 1-8) was 22.7 ng/mL and 18.1 ng/mL and 3.5 ng/mL and 30.1 ng/mL and 21.6 ng/mL and 57 ng/mL and 288 ng/mL and 8.66 ng/mL. For the same molecule, the Plasma concentration (multiple oral doses of 800 mg BID, fasted, 12 h, individual subjects 1-8) was 11.1 ng/mL and 16.8 ng/mL and 2.59 ng/mL and 12.1 ng/mL and 12.4 ng/mL and 42.7 ng/mL and 5.14 ng/mL, the Plasma concentration (single oral dose of 200 mg, fasted, 0.5 h, individual subjects) was 12.0 ng/mL and 7.61 ng/mL and 8.20 ng/mL and 27.8 ng/mL and the Plasma concentration (single oral dose of 200 mg, fasted, 4 h, individual subjects) was 7.45 ng/mL and 21.0 ng/mL and 4.79 ng/mL and 4.8 ng/mL and 114 ng/mL. The Plasma concentration (single oral dose of 200 mg, fasted, 6 h, individual subjects) was 3.04 ng/mL and 8.00 ng/mL and 1.60 ng/mL and 1.82 ng/mL and 44.8 ng/mL, the Plasma concentration (single oral dose of 200 mg, fasted, 8 h, individual subjects) was 2.37 ng/mL and 4.77 ng/mL and 0.954 ng/mL and 1.22 ng/mL and 23.6 ng/mL and the Plasma concentration (single oral dose of 200 mg, fasted, 12 h, individual subjects) was 1.73 ng/mL and 2.86 ng/mL and 0.678 ng/mL and 0.912 ng/mL and 16.0 ng/mL. For the same molecule, the Plasma concentration (single oral dose of 200 mg, fasted, 24 h, individual subjects) was 0.521 ng/mL and 1.08^a ng/mL, the Plasma concentration (single oral dose of 400 mg with a low-fat meal, 8 h, individual subjects) was 36.2 ng/mL and 6.62 ng/mL and 0.538 ng/mL and 48.8 ng/mL and 9.72 ng/mL and the Plasma concentration (single oral dose of 400 mg with a low-fat meal, 12 h, individual subjects) was 17.5 ng/mL and 3.17 ng/mL and 30.4 ng/mL and 5.32 ng/mL. The Plasma concentration (single oral dose of 400 mg, fasted, 0.5 h, individual subjects) was 51.4 ng/mL and 66.3 ng/mL and 71 ng/mL and 15.2 ng/mL and 51.5 ng/mL and 43.7 ng/mL, the Plasma concentration (single oral dose of 400 mg, fasted, 1 h, individual subjects) was 39.5 ng/mL and 62 ng/mL and 39.8 ng/mL and 38.2 ng/mL and 15.2 ng/mL and 71.7 ng/mL and 99.1 ng/mL and the Plasma concentration (single oral dose of 400 mg, fasted, 1.5 h, individual subjects) was 57.4 ng/mL and 9.42 ng/mL and 22.3 ng/mL and 49.5 ng/mL and 7.59 ng/mL and 69.1 ng/mL and 127 ng/mL. The Plasma concentration (single oral dose of 400 mg, fasted, 2 h, individual subjects) was 62.1 ng/mL and 11 ng/mL and 17.6 ng/mL and 30.8 ng/mL and 5.83 ng/mL and 268 ng/mL and 188 ng/mL, the Plasma concentration (single oral dose of 400 mg, fasted, 4 h, individual subjects) was 54.3 ng/mL and 6.83 ng/mL and 9.91 ng/mL and 7.09 ng/mL and 37 ng/mL and 281 ng/mL and 54.8 ng/mL and the Plasma concentration (single oral dose of 400 mg, fasted, 6 h, individual subjects) was 39.9 ng/mL and 2.9 ng/mL and 4.98 ng/mL and 5.22 ng/mL and 6.99 ng/mL and 158 ng/mL and 23.8 ng/mL. The Plasma concentration (single oral dose of 400 mg, fasted, 8 h, individual subjects) was 23 ng/mL and 0.923 ng/mL and 3.27 ng/mL and 3.59 ng/mL and 2.91 ng/mL and 106 ng/mL and 21.2 ng/mL, the Plasma concentration (single oral dose of 400 mg, fasted, 12 h, individual subjects) was 15.1 ng/mL and 1.05 ng/mL and 2.16 ng/mL and 2.43 ng/mL and 1.79 ng/mL and 49.2 ng/mL and 11.4 ng/mL and the Plasma concentration (single oral dose of 800 mg, fasted, 0.5 h, individual subjects) was 77.9 ng/mL and 1530 ng/mL and 101 ng/mL and 55.3 ng/mL and 14.9 ng/mL and 13.1 ng/mL and 78.5 ng/mL and 11.2 ng/mL. The Plasma concentration (single oral dose of 800 mg, fasted, 1 h, individual subjects) was 129 ng/mL and 1760 ng/mL and 79.9 ng/mL and 64.3 ng/mL and 23.4 ng/mL and 11.4 ng/mL and 205 ng/mL and 15.4 ng/mL, the Plasma concentration (single oral dose of 800 mg, fasted, 1.5 h, individual subjects) was 108 ng/mL and 489 ng/mL and 74.2 ng/mL and 48.9 ng/mL and 13.8 ng/mL and 24 ng/mL and 437 ng/mL and 16.2 ng/mL and the Plasma concentration (single oral dose of 800 mg, fasted, 2 h, individual subjects) was 78.2 ng/mL and 328 ng/mL and 29.3 ng/mL and 27.7 ng/mL and 11.2 ng/mL and 80.5 ng/mL and 374 ng/mL and 8.36 ng/mL. For the same molecule, the Plasma concentration (single oral dose of 800 mg, fasted, 4 h, individual subjects) was 14.7 ng/mL and 108 ng/mL and 6.77 ng/mL and 8.95 ng/mL and 24 ng/mL and 69.2 ng/mL and 302 ng/mL and 6.89 ng/mL, the Plasma concentration (single oral dose of 800 mg, fasted, 6 h, individual subjects) was 4.95 ng/mL and 37.3 ng/mL and 3.2 ng/mL and 8.44 ng/mL and 8.62 ng/mL and 62.5 ng/mL and 329 ng/mL and 8.79 ng/mL and the Plasma concentration (single oral dose of 800 mg, fasted, 8 h, individual subjects) was 2.73 ng/mL and 26 ng/mL and 1.12 ng/mL and 4.28 ng/mL and 10.1 ng/mL and 53.2 ng/mL and 266 ng/mL and 33.8 ng/mL. For the same molecule, the Plasma concentration (single oral dose of 800 mg, fasted, 12 h, individual subjects) was 2.06 ng/mL and 14.4 ng/mL and 1.22 ng/mL and 2.51 ng/mL and 2.1 ng/mL and 22.3 ng/mL and 43.3 ng/mL and the Plasma concentration (single oral dose of 800 mg, fasted, 24 h, individual subjects) was 0.894 ng/mL and 50.2 ng/mL.
